Assay results published in publication doi:10.1101/2022.07.14.499993.
No constants are given. Whether binding was seen depends on the method and setting. Some binding calls cover weakened binding; strength is not graded here. Where a sequence is shown, tags or fusion partners need not be part of it.

Chains of the proteins cited; added tags and fusions are not shown. Residues count along the entry.
UniProt P40189, residues 24-618: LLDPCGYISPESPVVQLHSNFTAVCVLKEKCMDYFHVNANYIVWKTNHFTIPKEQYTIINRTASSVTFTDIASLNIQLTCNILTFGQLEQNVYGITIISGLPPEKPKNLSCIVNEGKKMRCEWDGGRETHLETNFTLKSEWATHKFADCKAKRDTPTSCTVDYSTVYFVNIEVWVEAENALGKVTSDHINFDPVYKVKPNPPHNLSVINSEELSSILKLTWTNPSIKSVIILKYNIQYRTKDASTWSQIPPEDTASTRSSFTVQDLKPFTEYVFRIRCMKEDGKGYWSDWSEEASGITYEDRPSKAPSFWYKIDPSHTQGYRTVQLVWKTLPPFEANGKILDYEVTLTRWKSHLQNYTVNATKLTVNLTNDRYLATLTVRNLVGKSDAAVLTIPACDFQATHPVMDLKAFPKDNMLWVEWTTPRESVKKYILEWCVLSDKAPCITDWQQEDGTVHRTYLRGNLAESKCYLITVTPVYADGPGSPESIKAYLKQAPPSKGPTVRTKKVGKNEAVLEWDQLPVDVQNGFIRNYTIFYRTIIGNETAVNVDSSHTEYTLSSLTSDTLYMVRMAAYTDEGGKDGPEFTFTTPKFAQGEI

Target: T1, IL-11/IL-11Rα fusion (interleukin and receptor connected with a (GGGGS)3 linker) (UniProt Q14626)
T1 sequence: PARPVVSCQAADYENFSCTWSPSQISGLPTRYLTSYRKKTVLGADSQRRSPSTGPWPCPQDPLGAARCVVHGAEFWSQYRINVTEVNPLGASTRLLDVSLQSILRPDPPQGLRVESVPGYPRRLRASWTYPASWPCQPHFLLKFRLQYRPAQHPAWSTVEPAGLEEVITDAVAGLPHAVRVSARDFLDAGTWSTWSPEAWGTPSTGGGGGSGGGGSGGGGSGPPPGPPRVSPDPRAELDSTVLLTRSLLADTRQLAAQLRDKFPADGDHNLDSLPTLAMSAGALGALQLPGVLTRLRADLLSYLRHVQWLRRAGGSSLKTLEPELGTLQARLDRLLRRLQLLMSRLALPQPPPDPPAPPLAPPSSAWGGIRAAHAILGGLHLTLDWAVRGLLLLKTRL
Test: HDX-MS

binding: binds
Substance: human glycoprotein 130 (amino acids 24-618) (from UniProt P40189 24-618) (receptor)
